What all share (test): co-IP
The target in one experiment is T1, Flag-NUSAP1 (UniProt Q9BXS6).
T1 sequence: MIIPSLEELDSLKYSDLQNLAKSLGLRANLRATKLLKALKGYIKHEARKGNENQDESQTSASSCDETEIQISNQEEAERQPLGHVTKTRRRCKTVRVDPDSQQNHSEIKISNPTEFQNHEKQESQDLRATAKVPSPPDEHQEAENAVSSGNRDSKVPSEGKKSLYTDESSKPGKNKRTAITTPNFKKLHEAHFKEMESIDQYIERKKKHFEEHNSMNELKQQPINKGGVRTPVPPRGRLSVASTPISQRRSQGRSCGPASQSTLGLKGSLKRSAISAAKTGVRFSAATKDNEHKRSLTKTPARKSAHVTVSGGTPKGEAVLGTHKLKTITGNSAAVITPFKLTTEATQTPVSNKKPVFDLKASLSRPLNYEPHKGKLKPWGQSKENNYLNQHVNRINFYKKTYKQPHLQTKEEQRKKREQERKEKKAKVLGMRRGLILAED

Sequences of proteins named here, by UniProt entry; tags and fusion partners are left off. Residues count along the entry.
UniProt P25490, whole entry: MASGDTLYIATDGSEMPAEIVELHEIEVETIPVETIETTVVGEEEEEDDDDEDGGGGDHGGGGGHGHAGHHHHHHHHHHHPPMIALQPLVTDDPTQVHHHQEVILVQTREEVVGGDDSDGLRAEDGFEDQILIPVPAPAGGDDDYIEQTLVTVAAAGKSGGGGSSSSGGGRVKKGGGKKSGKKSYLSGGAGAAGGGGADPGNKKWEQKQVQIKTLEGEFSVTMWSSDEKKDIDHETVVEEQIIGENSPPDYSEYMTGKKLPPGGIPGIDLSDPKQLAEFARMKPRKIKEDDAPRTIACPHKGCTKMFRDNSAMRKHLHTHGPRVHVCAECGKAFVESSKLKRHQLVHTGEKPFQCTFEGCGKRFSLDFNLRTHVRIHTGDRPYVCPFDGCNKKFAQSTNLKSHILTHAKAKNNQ
UniProt P25490, 1-320: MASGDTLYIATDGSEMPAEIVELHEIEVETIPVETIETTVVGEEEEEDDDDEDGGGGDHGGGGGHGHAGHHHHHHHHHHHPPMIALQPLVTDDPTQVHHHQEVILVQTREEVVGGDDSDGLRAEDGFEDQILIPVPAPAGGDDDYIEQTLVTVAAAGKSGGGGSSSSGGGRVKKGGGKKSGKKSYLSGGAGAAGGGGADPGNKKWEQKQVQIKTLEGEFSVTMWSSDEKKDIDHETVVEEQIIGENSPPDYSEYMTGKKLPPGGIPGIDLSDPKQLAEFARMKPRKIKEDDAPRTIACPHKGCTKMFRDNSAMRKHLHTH
UniProt P25490, 321-414: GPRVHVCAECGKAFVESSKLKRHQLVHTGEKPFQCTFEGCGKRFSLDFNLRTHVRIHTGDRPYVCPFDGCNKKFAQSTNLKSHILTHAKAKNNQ

The target of experiment [1] is T2, NUSAP1^CTD (Flag-tagged, amino acids 159–441) (UniProt Q9BXS6).
T2 sequence: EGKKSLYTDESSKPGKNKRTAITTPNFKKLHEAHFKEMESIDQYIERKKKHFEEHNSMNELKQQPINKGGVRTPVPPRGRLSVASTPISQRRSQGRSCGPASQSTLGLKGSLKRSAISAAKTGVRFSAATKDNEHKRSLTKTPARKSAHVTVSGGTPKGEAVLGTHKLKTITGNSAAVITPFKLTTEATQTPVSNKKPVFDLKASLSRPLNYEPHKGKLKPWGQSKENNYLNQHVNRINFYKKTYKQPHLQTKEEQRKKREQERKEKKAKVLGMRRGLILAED

The target of experiment [2] is T3, NUSAP1^NTD (Flag-tagged, amino acids 1–158) (UniProt Q9BXS6).
T3 sequence: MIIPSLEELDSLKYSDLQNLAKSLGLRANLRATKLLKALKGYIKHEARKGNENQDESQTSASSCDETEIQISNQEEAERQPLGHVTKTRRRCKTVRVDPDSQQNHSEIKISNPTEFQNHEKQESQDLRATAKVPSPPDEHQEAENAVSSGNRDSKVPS

The target in experiment [3] is T4, nucleolar and spindle-associated protein 1 (NUSAP1), endogenous (human (endogenous in THP-1)) (UniProt Q9BXS6).
T4 sequence: T1 sequence

The target in experiment [4] is Yin Yang 1 (YY1), endogenous (human (endogenous in THP-1)) (UniProt P25490).

Here are results for six molecules from publication doi:10.1101/2024.11.07.622424.

These are yes or no findings as the source states them, for the method shown. In cells and extracts the contact can be indirect. Some entries that bind do so weakly or less than the wild type. For some of these results: Sequences can lack the tags named with a protein.

Consider “YY1^CTD (EGFP-YY1^321–414) (from UniProt P25490 321-414) (domain or fragment)”, for which the binding entry with Flag-NUSAP1 is “no binding”.
Same read-out and setting: the entry for HA-YY1 (from UniProt P25490 1-414) is “binds”; for “YY1^NTD (EGFP-YY1^1–320) (from UniProt P25490 1-320) (domain or fragment)” it is “binds”.
Turning to EGFP-YY1 (from UniProt P25490 1-414), the binding result in experiment [1] is given as “binds”; in experiment [2], “no binding”.
Turning to “Yin Yang 1 (YY1), endogenous (from UniProt P25490 1-414)”, the binding entry in experiment [3] is “binds”.

B1: nucleolar and spindle-associated protein 1 (NUSAP1), endogenous (protein, UniProt Q9BXS6 1-441)
chain: T1 sequence
With B1, the binding result in experiment [4] is “binds”.
